The values below come from publication doi:10.1101/2024.10.01.616059 (bioRxiv, 2024).

Results are given in words; binding and its absence hold for the method and conditions named. A result given as binding can be weak or reduced; the word gives no strength.

The test has as its target T1, phosphoribosyl pyrophosphate synthetase 2 (PRPS2), mouse, endogenous (mouse (endogenous in NIH3T3 and C57BL/6 tissue)) (UniProt Q9CS42).
T1 sequence: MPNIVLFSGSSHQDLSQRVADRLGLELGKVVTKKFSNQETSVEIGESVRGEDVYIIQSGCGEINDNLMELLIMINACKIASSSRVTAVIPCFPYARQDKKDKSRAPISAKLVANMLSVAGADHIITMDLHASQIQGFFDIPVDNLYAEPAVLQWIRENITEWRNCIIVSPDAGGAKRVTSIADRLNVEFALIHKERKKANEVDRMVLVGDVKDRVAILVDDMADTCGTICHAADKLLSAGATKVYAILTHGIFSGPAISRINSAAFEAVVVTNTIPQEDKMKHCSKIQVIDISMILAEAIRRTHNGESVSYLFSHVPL
The experiment in a line: SEC; native whole-cell lysates of NIH3T3 AP1/AP2 KO cells stably expressing one exogenous AP1 or AP2 isoform or AP1/AP2 chimera, on Superose 6 Increase 3.2/300; fractions immunoblotted.

As to “short isoform of PRPSAP2, ALFA-tagged (exogenous)”, the binding result was “binds”.
